Out of some 340,000 compounds screened, about 6,200 (1.8%) were called active. This list was built around the results that the source calls inconclusive (neither active nor inactive); the mix of calls is not that of the screen. Calls follow the shape of the dose curve; as a rule, active = well fitted activation curve with a large enough effect; inconclusive = small, poorly fitted or top-dose-only effect; inactive = no such curve, though single readings can be large or run the other way. Where the call is inconclusive, the potency comes from a doubtful curve fit.
Experiment: A quantitative high throughput screen for small molecules that induce DNA re-replication in SW480 colon adenocarcinoma cells. Also: nearly all actives have a fitted effect of over 55% in size. As to re-replication activation: % of control where 0% means no effect.
Settings: Hoechst DNA content imaging, 48 h; re-replication activation: at 46.1 µM (top of the series) unless noted
How it was run: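 Per well, 250 cells were exposed to pinned compound for 48 hr. Nuclear DNA was visualised with Hoechst (40 min, 37 C) and total object intensity recorded by fluorescence scanning.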
Potency is read from the fitted curve at half-maximal effect.

Compound	Potency	re-replication activation
CC(=O)NC(C)c1cc(F)c2cccnc2c1O (configuration not stated)	inconclusive: 25.9 µM [activator, single point]	
Cc1cc(C(=O)N/N=C/c2c3ccccc3cc3ccccc23)n[nH]1	inconclusive: 29.1 µM [activator, single point]	
O=C(NC(c1ccccc1)c1ccccc1)C1CCCC1	inconclusive: 1.64 µM [activator, full curve, poor fit]	
Cc1ccc(CS(=O)(=O)Cc2ccc(C(=O)NCCCN3CC(C)CC(C)C3)o2)cc1 (configuration not stated)	inconclusive: 20.6 µM [activator, single point]	
CCOC(=O)C1CCN(C(=O)CN2C(=O)C(CC)Oc3ccccc32)CC1 (configuration not stated)	inconclusive: 1.46 µM [activator, full curve, poor fit]	
O=C(CSc1nc(-c2ccco2)cc(C(F)(F)F)n1)Nc1cccnc1	inconclusive: 29.1 µM [activator, single point]	
O=c1oc2ccccc2c(O)c1Cc1cc(Cl)c2cccnc2c1O	inconclusive: 29.1 µM [activator, partial curve, poor fit]	
CN(C)c1ccc(NC(=S)c2ccccn2)cc1	inconclusive: 32.6 µM [activator, partial curve, poor fit]	
O=C(/C=C/c1ccccc1O)c1ccc(Cl)cc1	inconclusive: 29.1 µM [activator, single point]	
Cc1ccc(SCc2cc(=O)n(C)[nH]2)cc1		inactive: 3.31%
Cc1ccc(NC(=S)N/N=C/c2ccc(OCCC(C)C)cc2)c(C)c1		inactive: -2.34%
Cc1ccc(C(c2c(C)n(C)n(-c3ccccc3)c2=O)c2c(C)n(C)n(-c3ccccc3)c2=O)s1	inconclusive: 20.6 µM [activator, single point]	
CN(C)c1cccc(C(=O)NCCCSc2ccccc2)c1		inactive: 2.05%
Cc1ccc(C(=O)C(C)OC(=O)CCN=C2NS(=O)(=O)c3ccccc32)cc1 (configuration not stated)	inconclusive: 29.1 µM [activator, partial curve, poor fit]	
COCCN(Cc1cn(C)nc1-c1ccc(Oc2ccccc2)cc1)C(C)C	inconclusive: 3.66 µM [activator, full curve, poor fit]	
O=C(Nc1nc(-c2cc(F)ccc2F)cs1)C1=NN(c2ccccc2)C(=O)CC1	inconclusive: 29.1 µM [activator, single point]	
Cc1nnc(SCC(=O)N(C)CC(=O)Nc2ccccc2Cl)s1		inactive: -36.5%
Cc1ccc(NC(=O)COC(=O)CC2SC(N3CCCC3)=NC2=O)cc1 (configuration not stated)	inconclusive: 32.6 µM [activator, single point]	
COc1cc(C2C3=C(CCCC3=O)Nc3[nH]n(-c4ccccc4)c(=O)c32)cc(OC)c1OC (configuration not stated)		inactive: -1.44%
Cc1cccc(Oc2nc(-c3ccncc3)nc3ccccc23)c1		inactive: 11.6%
O=C(COC(=O)c1cc(-c2cccs2)nc2ccccc12)NCc1ccco1		inactive: -18.4%
COc1cc(OC)cc(C(=O)NC(=S)Nc2ccc3[nH]c(=O)[nH]c3c2)c1	inconclusive: 29.1 µM [activator, partial curve, poor fit]	
CC1(C(=O)OCC(=O)NC(=O)c2ccccc2)CC1(Cl)Cl (configuration not stated)	inconclusive: 0.0291 µM [activator, full curve, poor fit]	

Some of the entries so far, with each value named.
Cc1ccc(C(c2c(C)n(C)n(-c3ccccc3)c2=O)c2c(C)n(C)n(-c3ccccc3)c2=O)s1
  Potency: inconclusive: 20.6 µM [activator, single point]
COc1cc(OC)cc(C(=O)NC(=S)Nc2ccc3[nH]c(=O)[nH]c3c2)c1
  Potency: inconclusive: 29.1 µM [activator, partial curve, poor fit]

Three neighbouring compounds out of the list so far, for reference:
Compound	Potency	re-replication activation
O=c1oc2ccccc2c(O)c1Cc1cc(Cl)c2cccnc2c1O	inconclusive: 29.1 µM [activator, partial curve, poor fit]	
CN(C)c1ccc(NC(=S)c2ccccn2)cc1	inconclusive: 32.6 µM [activator, partial curve, poor fit]	
O=C(/C=C/c1ccccc1O)c1ccc(Cl)cc1	inconclusive: 29.1 µM [activator, single point]	

Further records:

Compound	Potency	re-replication activation
CC(=O)OCC1=C(C(=O)O)N2C(=O)C(NC(=O)COc3ccc(F)cc3)C2SC1 (configuration not stated)	inconclusive: 29.1 µM [activator, single point]	
Cn1c(=O)c(Nc2ccc(Cl)cc2)c2c3c(cccc31)C(=O)c1ccccc1-2	inconclusive: 29.1 µM [activator, single point]	
Cc1ccc(C(c2cc(Cl)c3cccnc3c2O)N2CCN(C)CC2)cc1 (configuration not stated)	inconclusive: 25.9 µM [activator, single point]	
O=C(Cc1ccc(Cl)cc1)N1CCN(c2ccccc2)CC1	inconclusive: 6.51 µM [activator, single point]	
COc1ccccc1NC(=O)c1oc2ccccc2c1NC(=O)C1CC1		inactive: -9.82%
CC1=CC(=O)C=C(C)C1=NOc1ccc([N+](=O)[O-])cc1	inconclusive: 29.1 µM [activator, single point]	
COc1ccc(-c2sc3ccc(N4CCOCC4)cc3c2C#CCO)cc1	inconclusive: 23.1 µM [activator, single point]	
CC(C)=CCc1c(-c2ccc(O)cc2O)oc2c3c(cc(O)c2c1=O)OC(C)(C)C=C3		inactive: 15.7%
CCOc1ccc(NC(=O)c2cccc(OC(=S)N3CCOCC3)c2)cc1		inactive: 0.783%
COc1ccccc1NC(=O)C(=O)NCC(c1ccco1)N1CCc2ccccc21 (configuration not stated)	inconclusive: 29.1 µM [activator, partial curve, poor fit]	
CC(=O)Nc1cccc(C(=O)/C=C/c2ccc(Br)cc2)c1	active: 20.6 µM	
CC1CCc2c(sc3ncnc(SCC(=O)c4ccccc4)c23)C1 (configuration not stated)		inactive: -0.821%
CCCn1c(SCC(=O)NC2CCCCC2)nnc1C1CC1	inconclusive: 29.1 µM [activator, single point]	
CC1(N2CCCCC2)C(=O)c2ccccc2C1=O		inactive: -13.3%
CC(=O)NCc1ccc(S(=O)(=O)N2CCN(S(=O)(=O)c3ccc4ccccc4c3)CC2)cc1		inactive: 18.7%
CC(C)CC(NC(=O)C(CC(C)C)NC(=O)C(Cc1ccc(OCc2ccccc2)cc1)NC(=O)OC(C)(C)C)C(N)=O (configuration not stated)	inconclusive: 16.4 µM [activator, single point]	
O=S(=O)(N/N=C/c1ccc(N2CCOCC2)cc1)c1ccccc1		inactive: 0.189%
C=CCN1c2ccccc2[C@]23C[C@@H](C(=O)OC)N(C(=O)NC4CCCC4)C2=NC(C(=O)OC)=C(C(=O)OC)[C@H]13	inconclusive: 1.64 µM [activator, partial curve, poor fit]	
S=c1nc2ccccc2c2nc(-c3ccccc3Cl)[nH]n12		inactive: 1.01%
CCN(CC(=O)N(CC(C)C)c1c(N)n(CC(C)C)c(=O)[nH]c1=O)Cc1nc2ccccc2c(=O)[nH]1		inactive: -8.04%
CCOC(=O)C1=C(N)n2c(s/c(=C\c3ccncc3)c2=O)=C(C(=O)OCC)C1c1ccncc1 (configuration not stated)		inactive: 1.52%
COc1ccc(N(CC(=O)N2CCC(Cc3ccccc3)CC2)S(C)(=O)=O)cc1	active: 5.8 µM	
CN1CCN(C(=O)/C=C/c2ccc([N+](=O)[O-])o2)CC1		inactive: 23.6%

Compound	Potency	re-replication activation
COc1ccc(N2CCN(Cc3cc(=O)oc4cc(-c5ccccc5)c(O)cc34)CC2)cc1	inconclusive: 32.6 µM [activator, partial curve, poor fit]	
O=[N+]([O-])c1ccc(CN2CCN(c3ccccc3Cl)CC2)o1	inconclusive: 29.1 µM [activator, single point]	
Cc1nnc(SCC(=O)NNC(=O)c2ccccc2)n1-c1ccccc1	inconclusive: 2.06 µM [activator, partial curve, poor fit]	
O=C(Nc1cccc(NC(=O)c2ccccc2Cl)c1)c1ccc([N+](=O)[O-])o1	inconclusive: 5.8 µM [activator, single point]	
C=CCOCCN(C)C1=NS(=O)(=O)c2cc([N+](=O)[O-])ccc21	active: 9.2 µM	
COc1ccc(C2Nc3ccccc3C(=O)N2c2ccc(C)cc2)cc1Cn1nc(C)c([N+](=O)[O-])c1C (configuration not stated)	inconclusive: 18.4 µM [activator, single point]	
Cc1cccc(N=C2NN=C(c3c(C)[nH]c4ccccc34)CS2)c1	inconclusive: 20.6 µM [activator, single point]	
O=C(CC(=O)N/N=C/c1ccccc1O)NCc1cccnc1	inconclusive: 16.4 µM [activator, partial curve, poor fit]	
COC(=O)[C@@]1(Cc2ccccc2)[C@H]2C(=O)N(C)C(=O)[C@H]2[C@H]2CN=C(SCC3CC3)N21	inconclusive: 0.58 µM [activator, partial curve, poor fit]	
CCc1ccc(CNC(=O)c2cc3c(C)nc4ccccc4c3o2)cc1		inactive: 8.4%
CC1CCCN(C(=O)Cn2nnc(-c3ccccc3F)n2)C1 (configuration not stated)		inconclusive: 49.2% [activator]
CCCN1C(C)C(C(=O)OCC)=CN(Cc2ccc(Br)cc2)S1(=O)=O (configuration not stated)		inactive: 4.77%
CCN(CC)c1nc(-c2ccc(Cl)cc2)cc(C(F)(F)F)c1C#N	inconclusive: 2.06 µM [activator, partial curve]	
Cc1nc(Sc2nnnn2C)c2c3c(sc2n1)CCC3	active: 5.8 µM	
O=C(CNS(=O)(=O)c1ccccc1)N1CCc2ccccc2C1	inconclusive: 6.51 µM [activator, single point]	
CCOc1ccc(-c2nnn(CC(=O)NCc3ccccc3)n2)cc1	inconclusive: 3.26 µM [activator, full curve]	
CC(C)(C)[C@H]1C=C(C(=O)N2CCN(Cc3ccccc3)CC2)O[C@@H](OCc2ccc(CO)cc2)C1	inconclusive: 0.651 µM [activator, full curve]	
COc1ccc(OCc2n[nH]c(=S)n2-c2ccc(C)cc2)cc1		inactive: 1.75%
Cc1cc(C)c2nc(NNC(=O)c3ccc(S(=O)(=O)N4CC(C)CC(C)C4)cc3)sc2c1 (configuration not stated)	inconclusive: 18.4 µM [activator, partial curve]	
CCOC(=O)c1c(C)nn(-c2ncccc2NC(=O)CCC(=O)O)c1C	inconclusive: 7.31 µM [activator, full curve, poor fit]	
C[C@H](CO)N1C[C@H](C)[C@@H](CN(C)C(=O)Nc2ccc3c(c2)OCO3)Oc2ccc(NS(=O)(=O)c3ccc(F)cc3)cc2C1=O	inconclusive: 0.92 µM [activator, partial curve, poor fit]	
